Experimental data: PubChem BioAssay AID504786 (Drosophila RNAi Screening Center, 2011)
Test: 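Positive regulators of HIF-driven reporter output in Drosophila cells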 (primary screen). System: Drosophila S2 cells with a stable HIF luciferase reporter. Knock-down reagent: long dsRNA against Drosophila genes, about 0.2 µg dsRNA per well of a 384-well plate. Timing: three days of knock-down, then 20 h of DFO before reading. Conditions: desferrioxamine (DFO) at 100 µM, an iron chelator that mimics hypoxia, for 20 h. Detection: 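HIF reporter luminescence in cells given 100 µM DFO for 20 h, using the mouse ldh-a hypoxia-response element, scored as per-plate z-scores; higher means greater loss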. Scale: z-score: higher = stronger loss of HIF reporter signal.
The deposit covers about 21,000 reagents; this is an unselected part of those with a known target gene and a result. 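Primary screen; positive scores mean lost reporter signal, so the sign may be inverted from the usual convention.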 A plus sign joins genes that one reagent is predicted to hit.

gene,DRSC id,"z-score, replicate 1","z-score, replicate 2","z-score, replicate 3","z-score, replicate 4"
Irp-1A,DRSC16719,-0.3,-0.3,-0.6,-0.3
CG9083,DRSC04625,-0.2,0.1,,
Sptr,DRSC18719,-0.1,0.1,,
AstC-R2,DRSC10051,-0.3,0.2,,
mnb,DRSC20058,4.7,2.7,,
mnb,DRSC20353,0.2,0.1,,
ETH,DRSC04612,0,-0.3,,
NK7.1,DRSC16755,-0.2,-0.2,,
p23,DRSC15158,-0.4,-0.3,,
PGRP-SA,DRSC19420,-0.3,0.2,,
CG6996,DRSC10758,-0.2,0,,
blo,DRSC05937,-0.4,0,,
ACXE,DRSC00847,-0.4,-0.1,,
ng4,DRSC18805,-0.4,-0.4,,
COX7B,DRSC10895,1.9,0.4,,
CG3124,DRSC04339,1.3,1.4,,
Roc1b + Cdc5,DRSC08687,-0.2,0.3,,
CG45067,DRSC08414,-0.2,-0.1,,
CG13996,DRSC02328,0,-0.5,,
CG13921,DRSC08390,-0.1,0.2,,
Ho,DRSC14939,-0.4,-0.3,,
CG17991,DRSC15294,0.2,0.4,,
Polr1D + DCTN6-p27,DRSC02094,0.7,1.8,,
fru,DRSC16951,3.4,-0.9,,
fru,DRSC16952,0.2,-1.5,-0.4,-0.3
fru,DRSC16953,0.5,-1.4,-0.5,0.1
nau,DRSC17011,-0.2,-0.4,,
CG31871,DRSC02567,0,0.1,,
CG31871,DRSC02571,0.1,0.5,,
alpha-Man-IIb,DRSC16898,-0.2,-0.1,,
CG3253,DRSC04350,-0.1,-0.1,,
CG12480,DRSC19460,-0.4,0.6,-0.7,-0.3
CG14743,DRSC06479,-0.3,-0.4,,
Nepl20,DRSC14878,-0.3,-0.6,,
CG6966,DRSC16156,-0.2,-0.3,,
CG32833,DRSC04596,-0.3,-0.3,,
Ms,DRSC16041,-0.2,-0.3,,
CG7430,DRSC10845,-0.2,-0.6,,
Sgs4,DRSC18715,-0.4,-0.3,,
CG15870,DRSC06588,-0.4,0,,
gol,DRSC04689,-0.2,-0.6,,
ND-39,DRSC11791,-0.1,-0.5,,
CG14882,DRSC15006,-0.3,-0.7,,
sens,DRSC09263,2.1,0.5,,
Lasp,DRSC10379,-0.3,-0.7,,
CG30026,DRSC05276,-0.2,-0.2,,
TwdlF,DRSC12225,-0.3,-0.4,,
CG31272,DRSC16058,-0.1,-0.4,,
zetaTry,DRSC07720,-0.4,-0.6,,
CG17085 (retired record),DRSC02565,-0.2,-0.2,,
CG17085 (retired record),DRSC02566,-0.3,0,,
yellow-e,DRSC12966,-0.5,-0.6,,
yellow-e,DRSC16563,-0.3,0.1,,
Trx2,DRSC03622,-0.3,-0.4,,
CG9014,DRSC01979,-0.4,-0.1,,
MnM,DRSC08423,-0.2,-0.2,,
CG10584,DRSC11624,-0.3,-0.6,,
CG34199,DRSC05867,0.4,0,,
CG7058,DRSC20021,-0.6,-0.4,,
CG5149,DRSC02819,-0.3,-0.3,,
CG3841,DRSC02730,-0.1,-0.1,,
Nup160 + RfC38,DRSC01997,-0.2,-0.2,,
Gyc89Db,DRSC15009,-0.1,0.1,,
CG1909,DRSC17150,0.2,-0.1,,
Nsun5,DRSC15835,-0.2,0.2,,
mRpS6,DRSC08470,0.7,0.1,,
IFT52,DRSC03271,-0.3,-0.5,,
Hmt4-20,DRSC18482,4.6,3.9,,
sds22,DRSC17052,-0.2,-0.4,,
CG7707,DRSC10903,-0.1,0.2,,
CG4074,DRSC11752,-0.3,0.4,,
acj6,DRSC20304,-0.2,-0.5,,
Idh3g,DRSC15699,0.1,-0.5,,
CG10486,DRSC09735,-0.2,-0.8,,
lambdaTry,DRSC06137,-0.2,-0.4,,
Drice,DRSC16715,-0.4,-0.5,,
be,DRSC19607,-0.3,-0.3,,
be,DRSC19944,-0.4,-0.4,,
be,DRSC19945,-0.5,-0.7,,
CG31473,DRSC15443,-0.5,-0.5,,
Hph,DRSC12164,2.4,2.1,,
Hph,DRSC12251,0.3,0.9,,
CG42580,DRSC20397,-0.3,-0.4,,

7 entries from above, reformatted:
gene	DRSC id	z-score, replicate 1	z-score, replicate 2	z-score, replicate 3	z-score, replicate 4
CG10486	DRSC09735	-0.2	-0.8		
lambdaTry	DRSC06137	-0.2	-0.4		
Drice	DRSC16715	-0.4	-0.5		
be	DRSC19607	-0.3	-0.3		
be	DRSC19944	-0.4	-0.4		
be	DRSC19945	-0.5	-0.7		
CG31473	DRSC15443	-0.5	-0.5		
